The results in this text go back to PMC12746103, “Structural insights into the exchange mechanism of a replicative DNA polymerase” (Nucleic Acids Research, 2025).

Assay [1] deals with dimer-interface mutant gp43(exo-) polymerase (D75R, Q430E, K432E in gp43(exo-) D219A) (bacteriophage T4) (UniProt P04415). Description: SEC; mixtures of the gp45 clamp and P/T DNA with either gp43(exo-) or the dimer-interface mutant polymerase; conditions not given; both purified.
Assay [2] has the same target. Description: cryo-EM structure; 10 μM gp45 clamp mixed with 5 μM primer/template DNA (20 mM HEPES pH 7.5, 150 mM KOAc, 10 mM MgCl2, 0.5 mM ddTTP, 2 mM DTT; 10 min, 30°C), then 6 μM gp43 polymerase added (10 min room temperature, 1 h on ice); no clamp loader; both purified.

No constants are given. Whether binding was seen depends on the method and setting.

B1: dimer-interface mutant gp43(exo-) polymerase (D75R, Q430E, K432E in gp43(exo-) D219A) (enzyme, bacteriophage T4)
chain: MKEFYISIETVGNNIVERYIDENGKERTREVEYLPTMFRHCKEESKYKDIYGKNCAPQKFPSMKDARDWMKRMERIGLEALGMNDFKLAYISDTYGSEIVYDRKFVRVANCDIEVTGDKFPDPMKAEYEIDAITHYDSIDDRFYVFDLLNSMYGSVSKWDAKLAAKLDCEGGDEVPQEILDRVIYMPFDNERDMLMEYINLWEQKRPAIFTGWNIEGFAVPYIMNRVKMILGERSMKRFSPIGRVKSKLIQNMYGSKEIYSIDGVSILDYLDLYKKFAFTNLPSFSLESVAQHETKKGKLPYDGPINKLRETNHQRYISYNIIDVESVQAIDKIRGFIDLVLSMSYYAKMPFSGVMSPIKTWDAIIFNSLKGEHKVIPQQGSHVKQSFPGAFVFEPKPIARRYIMSFDLTSLYPSIIRQVNISPETIRGEFEVHPIHEYIAGTAPKPSDEYSCSPNGWMYDKHQEGIIPKEIAKVFFQRKDWKKKMFAEEMNAEAIKKIIMKGAGSCSTKPEVERYVKFSDDFLNELSNYTESVLNSLIEECEKAATLANTNQLNRKILINSLYGALGNIHFRYYDLRNATAITIFGQVGIQWIARKINEYLNKVCGTNDEDFIAAGDTDSVYVCVDKVIEKVGLDRFKEQNDLVEFMNQFGKKKMEPMIDVAYRELCDYMNNREHLMHMDREAISCPPLGSKGVGGFWKAKKRYALNVYDMEDKRFAEPHLKIMGMETQQSSTPKAVQEALEESIRRILQEGEESVQEYYKNFEKEYRQLDYKVIAEVKTANDIAKYDDKGWPGFKCPFHIRGVLTYRRAVSGLGVAPILDGNKVMVLPLREGNPFGDKCIAWPSGTELPKEIRSDVLSWIDHSTLFQKSFVKPLAGMCESAGMDYEEKASLDFLFG
notes: DNA polymerase gp43 of bacteriophage T4 with D219A (exo-) and the three dimer-interface mutations D75R, Q430E and K432E; PDB 9EA3 holds this mutant; the other three entries hold its parent m1; also called dimer-interface mutant polymerase; mutant polymerase; source: E. coli BL21(DE3), purified (chitin resin with intein-mediated cleavage, heparin)
On to B1, for which the figures for the binding entry in assay [1] and in assay [2] were “no binding” and “no binding (tested: 6 μM gp43 polymerase)”, respectively.
